1 substance from paper PMC12013513 can be followed below.

The chains behind the UniProt entries cited, without tags or fusion partners. Where a name states a change or a piece, a line headed by the entry shows the natural chain unless it says otherwise. A line that says so, or that is headed by a name, gives the form on record, which may keep a tag or linker. Residues count along the entry.
10xHis-RHO-1^Q63L (constitutively active RHO-1, 1-188 AA) (Q22038, form named): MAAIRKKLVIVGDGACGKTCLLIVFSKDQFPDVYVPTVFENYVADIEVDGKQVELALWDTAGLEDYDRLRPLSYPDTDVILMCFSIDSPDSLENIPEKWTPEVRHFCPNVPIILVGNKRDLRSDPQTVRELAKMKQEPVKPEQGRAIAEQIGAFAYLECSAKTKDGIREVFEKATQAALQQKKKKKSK

No constants are given. Whether binding was seen depends on the method and setting. Sequences can lack the tags named with a protein.

Assay [1] addresses T1, GST-ANI-1^C-term-RBM (681-1159 AA, A789D, E807K) (C. elegans) (UniProt Q9XTT4).
T1 sequence: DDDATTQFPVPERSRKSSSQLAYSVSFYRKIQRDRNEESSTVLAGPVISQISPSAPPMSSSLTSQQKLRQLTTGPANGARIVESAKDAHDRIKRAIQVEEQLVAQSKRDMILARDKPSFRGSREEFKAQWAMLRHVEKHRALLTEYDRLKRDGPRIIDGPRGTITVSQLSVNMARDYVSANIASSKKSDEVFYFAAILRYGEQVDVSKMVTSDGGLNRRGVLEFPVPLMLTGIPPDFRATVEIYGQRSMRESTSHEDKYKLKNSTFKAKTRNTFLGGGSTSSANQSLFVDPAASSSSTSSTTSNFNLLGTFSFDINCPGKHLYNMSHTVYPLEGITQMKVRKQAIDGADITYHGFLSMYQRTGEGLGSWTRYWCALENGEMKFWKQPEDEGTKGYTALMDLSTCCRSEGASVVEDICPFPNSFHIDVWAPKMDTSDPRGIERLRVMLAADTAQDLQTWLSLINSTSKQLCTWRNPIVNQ
Briefly: pull-down; ~4 μg GST-ANI-1 fragment on Glutathione Sepharose beads mixed with ~4 μg purified 10xHis-RHO-1 in 300 μl binding buffer (20 mM Tris pH 7.4, 150 mM NaCl, 5 mM MgCl2, 0.1% Triton X-100, 1 mM DTT) with 1 mM GTP, 4°C, 1.5 h; bound RHO-1 detected by anti-His immunoblot; both purified. (In general: Immunoblotting shows a protein as a band on a membrane.)

For assay [2], the target named is T2, GST-ANI-1^Linker (460-775 AA) (C. elegans) (UniProt Q9XTT4).
T2 sequence: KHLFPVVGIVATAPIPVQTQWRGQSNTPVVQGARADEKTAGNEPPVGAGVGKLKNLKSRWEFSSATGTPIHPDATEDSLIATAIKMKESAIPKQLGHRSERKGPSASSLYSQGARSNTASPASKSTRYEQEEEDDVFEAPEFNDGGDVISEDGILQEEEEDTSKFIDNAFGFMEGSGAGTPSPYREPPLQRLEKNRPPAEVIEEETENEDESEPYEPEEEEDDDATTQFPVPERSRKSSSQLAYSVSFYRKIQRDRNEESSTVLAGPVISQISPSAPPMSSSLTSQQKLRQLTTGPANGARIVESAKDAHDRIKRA
The assay is described as above.

With “10xHis-RHO-1^Q63L (constitutively active RHO-1, 1-188 AA) (from UniProt Q22038 1-188) (domain or fragment)”, the binding result in assay [1] and in assay [2] was “no binding (tested: ~4 μg of each protein in 300 μl)” each time.
